Paper PMC4141641
Like-named read-outs stand apart in the source and are kept apart here. These are yes or no findings as the source states them, for the method shown. Binding seen in cells or lysates may run through a third protein. Some entries that bind do so weakly or less than the wild type.

By UniProt entry, the sequences of proteins in these tests, tags left out.
UniProt Q92826: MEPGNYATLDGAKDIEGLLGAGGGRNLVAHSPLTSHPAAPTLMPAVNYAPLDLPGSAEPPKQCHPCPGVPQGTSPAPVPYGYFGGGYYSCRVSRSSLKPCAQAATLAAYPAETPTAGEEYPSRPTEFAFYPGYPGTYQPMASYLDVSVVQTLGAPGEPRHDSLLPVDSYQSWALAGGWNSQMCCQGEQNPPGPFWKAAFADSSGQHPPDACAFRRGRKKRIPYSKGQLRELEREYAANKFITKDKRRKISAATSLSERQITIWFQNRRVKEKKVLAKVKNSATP
UniProt P13010: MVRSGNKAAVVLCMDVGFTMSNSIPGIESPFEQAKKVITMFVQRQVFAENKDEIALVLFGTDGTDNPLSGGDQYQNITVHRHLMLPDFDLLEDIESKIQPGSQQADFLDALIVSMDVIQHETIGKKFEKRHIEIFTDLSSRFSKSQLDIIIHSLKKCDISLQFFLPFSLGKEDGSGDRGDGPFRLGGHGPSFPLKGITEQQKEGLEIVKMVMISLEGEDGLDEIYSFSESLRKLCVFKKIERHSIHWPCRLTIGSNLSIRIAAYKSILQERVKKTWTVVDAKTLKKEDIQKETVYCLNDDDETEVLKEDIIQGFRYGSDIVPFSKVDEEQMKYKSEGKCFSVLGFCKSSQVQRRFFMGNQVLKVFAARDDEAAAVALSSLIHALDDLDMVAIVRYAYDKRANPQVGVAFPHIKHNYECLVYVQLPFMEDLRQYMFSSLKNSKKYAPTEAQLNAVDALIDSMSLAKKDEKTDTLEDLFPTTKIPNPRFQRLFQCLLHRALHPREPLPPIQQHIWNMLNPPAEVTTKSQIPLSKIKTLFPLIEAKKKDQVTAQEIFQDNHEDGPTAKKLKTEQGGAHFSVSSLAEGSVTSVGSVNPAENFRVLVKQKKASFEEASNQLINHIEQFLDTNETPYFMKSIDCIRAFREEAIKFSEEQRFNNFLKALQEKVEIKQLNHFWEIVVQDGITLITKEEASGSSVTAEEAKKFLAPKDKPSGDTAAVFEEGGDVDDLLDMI
UniProt P12956: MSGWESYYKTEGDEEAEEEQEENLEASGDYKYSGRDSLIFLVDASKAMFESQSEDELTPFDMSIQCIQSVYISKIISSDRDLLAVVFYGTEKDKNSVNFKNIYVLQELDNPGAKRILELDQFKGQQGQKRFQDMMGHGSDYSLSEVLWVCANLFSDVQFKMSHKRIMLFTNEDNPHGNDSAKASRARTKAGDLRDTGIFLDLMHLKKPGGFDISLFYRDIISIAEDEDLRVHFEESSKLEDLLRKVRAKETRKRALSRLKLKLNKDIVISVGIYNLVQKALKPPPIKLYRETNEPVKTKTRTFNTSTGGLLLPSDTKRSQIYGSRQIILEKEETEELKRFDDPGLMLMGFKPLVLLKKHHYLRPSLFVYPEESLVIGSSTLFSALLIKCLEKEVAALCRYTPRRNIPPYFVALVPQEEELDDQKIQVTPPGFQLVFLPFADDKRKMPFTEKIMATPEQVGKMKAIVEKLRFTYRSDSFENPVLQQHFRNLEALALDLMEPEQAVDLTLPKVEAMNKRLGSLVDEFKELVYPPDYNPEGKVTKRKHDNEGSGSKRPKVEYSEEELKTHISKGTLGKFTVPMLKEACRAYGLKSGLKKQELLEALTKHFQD
UniProt P09874: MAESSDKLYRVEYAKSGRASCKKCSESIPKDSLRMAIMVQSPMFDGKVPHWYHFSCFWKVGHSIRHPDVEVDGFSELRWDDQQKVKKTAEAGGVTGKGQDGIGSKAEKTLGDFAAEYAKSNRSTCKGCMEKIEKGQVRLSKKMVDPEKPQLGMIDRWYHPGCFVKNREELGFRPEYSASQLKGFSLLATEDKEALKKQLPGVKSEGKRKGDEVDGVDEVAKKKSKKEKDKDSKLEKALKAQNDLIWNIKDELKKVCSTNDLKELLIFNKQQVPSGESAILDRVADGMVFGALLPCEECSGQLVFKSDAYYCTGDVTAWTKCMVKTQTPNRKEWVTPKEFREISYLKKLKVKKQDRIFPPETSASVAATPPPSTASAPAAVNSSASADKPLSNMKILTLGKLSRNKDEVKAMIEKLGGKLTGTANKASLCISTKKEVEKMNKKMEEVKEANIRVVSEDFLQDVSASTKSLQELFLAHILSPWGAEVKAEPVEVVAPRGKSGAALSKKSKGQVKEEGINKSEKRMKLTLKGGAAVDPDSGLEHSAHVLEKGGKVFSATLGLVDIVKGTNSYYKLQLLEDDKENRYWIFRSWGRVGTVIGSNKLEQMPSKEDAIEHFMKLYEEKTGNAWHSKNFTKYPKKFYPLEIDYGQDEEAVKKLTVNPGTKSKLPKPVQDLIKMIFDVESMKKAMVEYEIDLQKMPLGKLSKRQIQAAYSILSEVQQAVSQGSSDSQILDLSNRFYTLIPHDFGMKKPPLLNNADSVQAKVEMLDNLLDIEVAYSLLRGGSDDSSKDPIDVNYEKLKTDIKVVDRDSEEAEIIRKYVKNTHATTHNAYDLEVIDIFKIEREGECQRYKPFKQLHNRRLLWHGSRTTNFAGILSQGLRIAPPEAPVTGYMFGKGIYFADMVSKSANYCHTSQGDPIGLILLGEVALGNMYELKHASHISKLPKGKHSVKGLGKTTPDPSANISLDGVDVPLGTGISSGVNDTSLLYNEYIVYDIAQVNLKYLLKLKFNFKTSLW

What was measured:
[1] = molecular target: endogenous NKX3.1 (human (endogenous in LNCaP)) (UniProt Q99801); assay: co-IP; nuclear protein fraction of LNCaP cells, immunoprecipitation with NKX3.1 antibodies or IgG control; immunoblotting
FLAG-NKX3.1 (human) [2] = molecular target: FLAG-NKX3.1 (human) (UniProt Q99801); assay: co-IP; LNCaP cells transfected with FLAG-NKX3.1 or empty vector; lysate absorbed to FLAG M2 resin; co-purifying endogenous proteins detected by immunoblotting
FLAG-NKX3.1 (human) [3] = molecular target: FLAG-NKX3.1 (human) (UniProt Q99801); assay: as above; remark: listed apart in the source

Molecule | binding [1] | binding (FLAG-NKX3.1 (human) [2]) | binding (FLAG-NKX3.1 (human) [3])
homeobox transcription factor HOXB13 (from UniProt Q92826 1-284) | – | binds | –
chromatin and nuclear assembly regulator BANF1 (protein, UniProt O75531 1-89) MTTSQKHRDFVAEPMGEKPVGSLAGIGEVLGKKLEERGFDKAYVVLGQFLVLKKDEDLFREWLKDTCGANAKQSRDCFGCLREWCDAFL | – | – | binds

More lines, now with the values ahead:

binding [1] | binding (FLAG-NKX3.1 (human) [2]) | binding (FLAG-NKX3.1 (human) [3]) | Molecule
binds | binds | – | XRCC5/Ku80 (from UniProt P13010 1-732)
binds | binds | – | XRCC6/Ku70 (from UniProt P12956 1-609)
binds | binds | – | poly(ADP) ribose polymerase (PARP1) (from UniProt P09874 1-1014) (enzyme)
